Strings that start with PEPTIDE1 are HELM notation: dots part the residues, brackets hold end groups and non-standard residues. Starred links: 1 amine or outer side, 2 acyl side, 3 side chain; linkers in the order of their positions; H or OH if unused. Non-standard residues stand in square brackets, D forms with d. Groups on a side chain read outwards from the residue. ξ: configuration not given here. *: point of attachment. Oic(3aξ,7aξ) = O=C(O)[C@@H]1CC2CCCCC2N1; X1 = N=C(N)NCCCC[C@H](N)CN*; X3 = N=C(N)NCCC[C@H](N)CN*; X2 = N=C(N)NCC[C@H](N)CN*; Orn = NCCC[C@H](N)C(=O)O; Dab = NCC[C@H](N)C(=O)O; CO = O=C([*:1])[*:2]
assay: general procedure: Fmoc solid-phase peptide synthesis; Fmoc-Arg(Pbf) Wang resin, 0.32 mmol/g; HCTU/DIPEA; settings: whole synthesis, scale of the general procedure 0.3 g resin, TFA

Compared with “PEPTIDE1{[DabU].[Dab].[Oic].R}|PEPTIDE2{[gDabU]}$PEPTIDE1,PEPTIDE2,1:R3-1:R2$$$V2.0”, “H-[Dab]([CO-X1])[Dab][Oic(3aξ,7aξ)]R-OH (SMILES N=C(N)NCCCC[C@H](N)CNC(=O)NCC[C@H](N)C(=O)N[C@@H](CCN)C(=O)N1C2CCCCC2C[C@H]1C(=O)N[C@@H](CCCNC(=N)N)C(=O)O)” is lower in isolated yield: 63% for the first, 59% for the second.

First: PEPTIDE1{[DapU].[Dab].[Oic].R}|PEPTIDE2{[ArgU]}$PEPTIDE1,PEPTIDE2,1:R3-1:R2$$$V2.0
Second: PEPTIDE1{[OrnU].[Dab].[Oic].R}|PEPTIDE2{[gDapU]}$PEPTIDE1,PEPTIDE2,1:R3-1:R2$$$V2.0
The isolated yield of the first is higher: 55% for the first, 51% for the second.

Going from “PEPTIDE1{[OrnU].[Dab].[Oic].R}|PEPTIDE2{R}$PEPTIDE1,PEPTIDE2,1:R3-1:R2$$$V2.0” to “PEPTIDE1{[LysU].[Dab].[Oic].R}|PEPTIDE2{[gDab]}$PEPTIDE1,PEPTIDE2,1:R3-1:R2$$$V2.0”, the isolated yield falls from 63% to 51%.

Compared with H-K([CO-X2])[Dab][Oic(3aξ,7aξ)]R-OH, H-[Orn]([CO-X3])[Dab][Oic(3aξ,7aξ)]R-OH is lower in isolated yield: 65% for the first, 55% for the second.

For “PEPTIDE1{[DabU].[Dab].[Oic].R}|PEPTIDE2{[hArg]}$PEPTIDE1,PEPTIDE2,1:R3-1:R2$$$V2.0”, the isolated yield was 59%.
